Results published in the supplement of paper PMC12819154, “High-throughput peptide-centric local stability assay extends protein–ligand identification to membrane proteins, tissues and bacteria” (Nature Structural & Molecular Biology, 2025).
The list shows a part of the results. Small differences around the control level are noise.

Protein sequences, listed by entry. Tags and fused reporters are not part of them. Lines headed by an entry give the natural chain unless they say otherwise; changes in a name come on top.
UniProt Q93092: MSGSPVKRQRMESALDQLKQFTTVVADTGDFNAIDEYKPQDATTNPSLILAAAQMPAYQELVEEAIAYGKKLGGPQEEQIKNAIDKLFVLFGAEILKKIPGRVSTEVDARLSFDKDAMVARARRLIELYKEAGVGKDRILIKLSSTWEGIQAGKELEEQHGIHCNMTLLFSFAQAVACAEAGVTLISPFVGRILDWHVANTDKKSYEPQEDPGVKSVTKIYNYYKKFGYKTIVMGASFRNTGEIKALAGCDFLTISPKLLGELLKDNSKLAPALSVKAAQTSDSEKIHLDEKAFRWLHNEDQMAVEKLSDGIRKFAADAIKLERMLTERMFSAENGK
UniProt Q99JY4: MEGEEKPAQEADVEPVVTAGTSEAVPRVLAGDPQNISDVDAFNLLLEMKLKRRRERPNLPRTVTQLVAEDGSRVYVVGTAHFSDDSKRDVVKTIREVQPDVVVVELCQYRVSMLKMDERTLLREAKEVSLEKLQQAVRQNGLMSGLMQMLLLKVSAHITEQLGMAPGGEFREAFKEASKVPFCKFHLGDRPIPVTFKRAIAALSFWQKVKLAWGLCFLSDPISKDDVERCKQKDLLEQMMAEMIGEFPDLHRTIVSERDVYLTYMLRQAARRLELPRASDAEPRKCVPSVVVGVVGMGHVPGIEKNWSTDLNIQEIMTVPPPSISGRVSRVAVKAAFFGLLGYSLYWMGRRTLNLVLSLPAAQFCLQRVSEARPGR
UniProt Q921R4: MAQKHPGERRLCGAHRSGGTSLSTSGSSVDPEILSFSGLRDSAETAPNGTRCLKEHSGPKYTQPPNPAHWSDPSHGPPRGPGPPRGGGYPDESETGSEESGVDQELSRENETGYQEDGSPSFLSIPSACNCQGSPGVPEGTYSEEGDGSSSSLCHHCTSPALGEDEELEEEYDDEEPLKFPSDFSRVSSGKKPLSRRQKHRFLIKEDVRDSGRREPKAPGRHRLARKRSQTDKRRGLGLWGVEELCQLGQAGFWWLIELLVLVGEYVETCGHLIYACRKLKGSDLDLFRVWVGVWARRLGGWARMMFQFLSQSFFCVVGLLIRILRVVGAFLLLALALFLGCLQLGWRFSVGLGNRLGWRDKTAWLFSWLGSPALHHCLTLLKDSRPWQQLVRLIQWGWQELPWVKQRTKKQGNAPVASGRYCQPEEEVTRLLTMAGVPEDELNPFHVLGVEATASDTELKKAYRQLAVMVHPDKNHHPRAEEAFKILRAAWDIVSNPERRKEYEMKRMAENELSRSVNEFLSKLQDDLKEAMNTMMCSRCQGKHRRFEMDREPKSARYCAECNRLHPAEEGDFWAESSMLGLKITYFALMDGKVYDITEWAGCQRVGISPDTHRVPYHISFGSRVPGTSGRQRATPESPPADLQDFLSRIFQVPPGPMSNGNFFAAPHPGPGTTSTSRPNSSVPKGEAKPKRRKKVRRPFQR
UniProt Q99KG7: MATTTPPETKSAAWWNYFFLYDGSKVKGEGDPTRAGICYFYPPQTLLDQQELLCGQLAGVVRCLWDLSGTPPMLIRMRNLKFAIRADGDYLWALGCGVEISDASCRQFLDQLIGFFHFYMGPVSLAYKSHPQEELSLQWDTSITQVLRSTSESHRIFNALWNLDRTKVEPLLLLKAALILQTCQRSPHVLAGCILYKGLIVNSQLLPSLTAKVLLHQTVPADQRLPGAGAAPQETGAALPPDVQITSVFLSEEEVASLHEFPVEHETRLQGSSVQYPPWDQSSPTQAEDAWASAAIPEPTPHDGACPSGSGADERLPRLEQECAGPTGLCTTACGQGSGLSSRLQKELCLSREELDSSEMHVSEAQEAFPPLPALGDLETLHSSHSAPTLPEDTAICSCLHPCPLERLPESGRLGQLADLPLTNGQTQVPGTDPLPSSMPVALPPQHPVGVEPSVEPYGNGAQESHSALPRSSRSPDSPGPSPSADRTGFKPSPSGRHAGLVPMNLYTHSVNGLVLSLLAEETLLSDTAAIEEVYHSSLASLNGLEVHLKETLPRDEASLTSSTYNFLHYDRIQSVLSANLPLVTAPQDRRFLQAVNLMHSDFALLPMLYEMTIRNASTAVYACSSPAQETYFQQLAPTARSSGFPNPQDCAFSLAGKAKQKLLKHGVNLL
UniProt Q99JY3: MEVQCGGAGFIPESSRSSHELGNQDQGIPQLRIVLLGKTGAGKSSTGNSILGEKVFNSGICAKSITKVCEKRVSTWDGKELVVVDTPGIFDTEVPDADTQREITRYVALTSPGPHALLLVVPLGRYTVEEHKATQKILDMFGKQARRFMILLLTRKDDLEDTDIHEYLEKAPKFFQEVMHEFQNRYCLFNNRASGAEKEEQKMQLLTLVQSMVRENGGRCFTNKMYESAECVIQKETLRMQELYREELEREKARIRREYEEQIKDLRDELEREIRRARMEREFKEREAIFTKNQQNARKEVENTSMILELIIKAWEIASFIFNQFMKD
UniProt Q921G6: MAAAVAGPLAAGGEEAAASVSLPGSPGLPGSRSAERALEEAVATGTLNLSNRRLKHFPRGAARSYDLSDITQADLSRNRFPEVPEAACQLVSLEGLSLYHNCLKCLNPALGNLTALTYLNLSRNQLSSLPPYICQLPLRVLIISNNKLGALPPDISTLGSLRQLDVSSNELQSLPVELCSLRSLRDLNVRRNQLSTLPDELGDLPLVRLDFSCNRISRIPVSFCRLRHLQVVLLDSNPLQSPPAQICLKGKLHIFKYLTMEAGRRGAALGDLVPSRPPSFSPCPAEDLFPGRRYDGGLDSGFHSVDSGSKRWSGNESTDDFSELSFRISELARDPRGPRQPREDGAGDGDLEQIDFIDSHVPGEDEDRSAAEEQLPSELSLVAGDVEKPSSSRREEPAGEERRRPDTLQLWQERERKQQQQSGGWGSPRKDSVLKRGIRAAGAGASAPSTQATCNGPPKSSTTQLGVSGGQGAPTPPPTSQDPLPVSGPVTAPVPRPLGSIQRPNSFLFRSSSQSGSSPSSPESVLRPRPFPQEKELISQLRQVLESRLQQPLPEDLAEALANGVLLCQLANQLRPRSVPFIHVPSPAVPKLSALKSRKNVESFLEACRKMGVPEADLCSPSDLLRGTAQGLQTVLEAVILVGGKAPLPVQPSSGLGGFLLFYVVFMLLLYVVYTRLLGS
UniProt Q91ZZ3, whole entry: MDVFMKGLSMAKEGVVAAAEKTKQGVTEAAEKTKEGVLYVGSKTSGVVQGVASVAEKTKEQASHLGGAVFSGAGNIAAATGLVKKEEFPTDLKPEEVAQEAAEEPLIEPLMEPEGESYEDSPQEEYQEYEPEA
UniProt Q99KC7: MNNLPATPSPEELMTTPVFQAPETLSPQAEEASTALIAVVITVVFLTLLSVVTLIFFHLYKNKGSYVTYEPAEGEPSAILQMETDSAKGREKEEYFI
UniProt Q99JT9: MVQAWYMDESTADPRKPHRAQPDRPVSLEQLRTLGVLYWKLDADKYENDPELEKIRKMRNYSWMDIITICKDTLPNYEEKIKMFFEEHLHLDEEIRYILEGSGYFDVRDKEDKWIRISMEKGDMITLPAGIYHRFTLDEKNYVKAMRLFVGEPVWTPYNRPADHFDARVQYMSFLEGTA
UniProt Q921M7: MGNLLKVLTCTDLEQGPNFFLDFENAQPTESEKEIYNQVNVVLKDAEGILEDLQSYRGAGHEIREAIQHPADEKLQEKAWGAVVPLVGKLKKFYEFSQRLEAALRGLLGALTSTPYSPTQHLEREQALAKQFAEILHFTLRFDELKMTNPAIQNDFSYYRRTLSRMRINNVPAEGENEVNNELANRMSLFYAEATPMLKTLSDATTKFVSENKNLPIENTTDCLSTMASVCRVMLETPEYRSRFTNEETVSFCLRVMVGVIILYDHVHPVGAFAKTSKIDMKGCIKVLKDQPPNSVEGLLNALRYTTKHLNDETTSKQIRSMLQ
UniProt Q922X9: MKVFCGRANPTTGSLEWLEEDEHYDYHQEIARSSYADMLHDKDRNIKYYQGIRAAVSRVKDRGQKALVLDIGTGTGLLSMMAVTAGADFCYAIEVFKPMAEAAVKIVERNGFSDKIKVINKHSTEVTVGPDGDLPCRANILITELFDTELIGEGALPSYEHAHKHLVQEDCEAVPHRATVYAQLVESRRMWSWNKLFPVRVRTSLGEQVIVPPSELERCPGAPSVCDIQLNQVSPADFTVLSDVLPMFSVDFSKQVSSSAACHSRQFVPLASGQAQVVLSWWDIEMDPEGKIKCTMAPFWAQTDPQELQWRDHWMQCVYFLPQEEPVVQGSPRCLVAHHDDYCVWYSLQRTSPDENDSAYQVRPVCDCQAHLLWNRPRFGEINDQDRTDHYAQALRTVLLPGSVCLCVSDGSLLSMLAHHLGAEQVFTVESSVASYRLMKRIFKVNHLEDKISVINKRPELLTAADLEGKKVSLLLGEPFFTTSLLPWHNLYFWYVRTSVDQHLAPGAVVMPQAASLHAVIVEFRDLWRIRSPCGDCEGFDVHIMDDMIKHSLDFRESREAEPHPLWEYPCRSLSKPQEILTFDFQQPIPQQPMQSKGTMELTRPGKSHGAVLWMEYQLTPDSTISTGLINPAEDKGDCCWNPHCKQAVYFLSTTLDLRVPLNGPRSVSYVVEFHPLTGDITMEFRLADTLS
UniProt Q99LH4: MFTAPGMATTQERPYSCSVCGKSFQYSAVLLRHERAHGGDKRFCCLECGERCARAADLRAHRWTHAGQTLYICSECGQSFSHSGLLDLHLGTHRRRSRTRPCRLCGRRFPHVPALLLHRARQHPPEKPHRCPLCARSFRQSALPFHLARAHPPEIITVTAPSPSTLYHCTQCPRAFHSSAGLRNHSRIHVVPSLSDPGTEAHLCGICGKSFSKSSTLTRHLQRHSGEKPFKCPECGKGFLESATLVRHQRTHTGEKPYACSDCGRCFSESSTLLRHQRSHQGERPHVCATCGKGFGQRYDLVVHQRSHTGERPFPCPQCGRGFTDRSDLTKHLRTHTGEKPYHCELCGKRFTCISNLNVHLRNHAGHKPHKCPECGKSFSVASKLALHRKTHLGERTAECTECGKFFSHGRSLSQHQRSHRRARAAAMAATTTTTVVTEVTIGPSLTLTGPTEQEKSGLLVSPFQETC
UniProt Q922B1: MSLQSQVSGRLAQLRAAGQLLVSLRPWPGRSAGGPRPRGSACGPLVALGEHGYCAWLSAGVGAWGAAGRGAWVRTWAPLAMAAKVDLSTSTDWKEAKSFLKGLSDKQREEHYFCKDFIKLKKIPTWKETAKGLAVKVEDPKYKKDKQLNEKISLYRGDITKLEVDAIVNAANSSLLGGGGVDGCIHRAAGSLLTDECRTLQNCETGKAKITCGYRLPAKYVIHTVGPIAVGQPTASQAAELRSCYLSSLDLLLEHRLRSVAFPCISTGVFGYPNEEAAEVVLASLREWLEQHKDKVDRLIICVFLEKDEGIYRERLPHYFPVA
UniProt Q99KF1: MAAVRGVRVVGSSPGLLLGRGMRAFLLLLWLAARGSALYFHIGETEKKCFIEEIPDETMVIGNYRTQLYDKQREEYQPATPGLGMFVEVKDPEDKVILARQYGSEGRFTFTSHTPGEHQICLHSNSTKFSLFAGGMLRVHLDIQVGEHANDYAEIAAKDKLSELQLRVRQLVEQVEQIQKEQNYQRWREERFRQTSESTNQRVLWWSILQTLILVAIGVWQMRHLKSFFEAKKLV
UniProt Q923B1: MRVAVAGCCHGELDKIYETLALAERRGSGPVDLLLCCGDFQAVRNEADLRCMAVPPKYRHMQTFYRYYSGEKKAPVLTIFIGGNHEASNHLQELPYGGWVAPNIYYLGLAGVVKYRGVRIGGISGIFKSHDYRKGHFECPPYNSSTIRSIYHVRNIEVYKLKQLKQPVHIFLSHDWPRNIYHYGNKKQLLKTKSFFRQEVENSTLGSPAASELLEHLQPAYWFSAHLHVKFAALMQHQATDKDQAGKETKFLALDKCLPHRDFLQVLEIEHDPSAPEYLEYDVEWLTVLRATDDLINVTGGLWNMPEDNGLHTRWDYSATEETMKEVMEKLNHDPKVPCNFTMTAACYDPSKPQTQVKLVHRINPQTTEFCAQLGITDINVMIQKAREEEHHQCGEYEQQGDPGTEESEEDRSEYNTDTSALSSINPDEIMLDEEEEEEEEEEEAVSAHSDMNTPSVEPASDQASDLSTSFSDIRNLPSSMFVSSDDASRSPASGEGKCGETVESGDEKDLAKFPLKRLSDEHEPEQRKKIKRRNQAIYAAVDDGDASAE
UniProt Q99KX1: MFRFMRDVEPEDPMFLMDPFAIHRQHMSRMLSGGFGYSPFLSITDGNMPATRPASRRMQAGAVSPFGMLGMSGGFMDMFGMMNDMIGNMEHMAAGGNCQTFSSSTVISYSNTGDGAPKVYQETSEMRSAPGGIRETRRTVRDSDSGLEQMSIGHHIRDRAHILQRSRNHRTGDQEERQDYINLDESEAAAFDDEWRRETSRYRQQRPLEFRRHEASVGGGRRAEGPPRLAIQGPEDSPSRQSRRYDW
UniProt Q921E2: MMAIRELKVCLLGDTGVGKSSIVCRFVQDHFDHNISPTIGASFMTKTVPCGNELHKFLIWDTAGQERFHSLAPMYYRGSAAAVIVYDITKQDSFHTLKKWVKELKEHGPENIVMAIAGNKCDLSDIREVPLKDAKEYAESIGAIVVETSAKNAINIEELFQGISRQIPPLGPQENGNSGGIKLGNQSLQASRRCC

Compound: CN[C@@H]1C[C@H]2O[C@@](C)([C@@H]1OC)n1c3ccccc3c3c4c(c5c6ccccc6n2c5c31)C(=O)NC4 [staurosporine]
Assay: log2 fold change of tryptic peptide abundance, ligand vs vehicle (limited proteolysis) (log2 ratio); higher = more trypsin-susceptible (destabilized)
Settings: ligand concentration: 20 uM; sample: mouse liver crude lysate; replicate design: treated separately

Target | log2 fold change
UniProt Q922G2 (peptide sequence: LSGGSHYNSQK, peptide start residue: 163) | 0.259
UniProt Q93092 (peptide sequence: TIVMGASFR, peptide start residue: 231) | 0.25
UniProt Q99JY4 (peptide sequence: VSAHITEQLGMAPGGEFR, peptide start residue: 154) | -0.19
UniProt Q99KG3 (peptide sequence: INEDWLCNK, peptide start residue: 213) | 0.402
UniProt Q99JR1 (peptide sequence: QAITQVVISR, peptide start residue: 224) | -0.485
UniProt Q921R4 (peptide sequence: DSAETAPNGTR, peptide start residue: 41) | -0.0168
UniProt Q924D0 (peptide sequence: HLWQGVHYR, peptide start residue: 331) | 0.286
UniProt Q99JR6 (peptide sequence: NRIPVVLLACGSFNPITNMHLR, peptide start residue: 3) | 0.318
UniProt Q99KG7 (peptide sequence: SPDSPGPSPSADR, peptide start residue: 475) | -0.505
UniProt Q99JY3 (peptide sequence: RVSTWDGK, peptide start residue: 72) | -0.325
UniProt Q921G6 (peptide sequence: YDGGLDSGFHSVDSGSKR, peptide start residue: 294) | -0.685
UniProt Q922M7 (peptide sequence: LKPLAQIGSTSDAFWK, peptide start residue: 126) | 0.162
UniProt Q91ZZ3 (peptide sequence: TSGVVQGVASVAEK, peptide start residue: 44) | 0.335
UniProt Q99KC7 (peptide sequence: GREKEEYFI, peptide start residue: 89) | -0.119
UniProt Q99JT9 (peptide sequence: DTLPNYEEK, peptide start residue: 72) | -0.212
UniProt Q921M7 (peptide sequence: FYEFSQR, peptide start residue: 93) | 0.284

Target | log2 fold change
UniProt Q922X9 (peptide sequence: SSYADMLHDKDR, peptide start residue: 33) | -0.541
UniProt Q99LH4 (peptide sequence: FCCLECGER, peptide start residue: 43) | 0.101
UniProt Q923D2 (peptide sequence: VISKHDLGHFMLR, peptide start residue: 175) | 0.309
UniProt Q922B1 (peptide sequence: LIICVFLEKDEGIYRER, peptide start residue: 299) | 0.437
UniProt Q99KF1 (peptide sequence: DKLSELQLR, peptide start residue: 159) | -0.28
UniProt Q922Q9 (peptide sequence: TQFSDKPVQDR, peptide start residue: 38) | -0.14
UniProt Q99LE3 (peptide sequence: RVNNLISDQDFFALR, peptide start residue: 91) | 0.223
UniProt Q923B1 (peptide sequence: RRNQAIYAAVDDGDASAE, peptide start residue: 533) | -0.496
UniProt Q921G8 (peptide sequence: YITAQPLAGR, peptide start residue: 232) | 0.161
UniProt Q99KB8 (peptide sequence: VYCGHEYTVNNLK, peptide start residue: 218) | -0.213
UniProt Q921L5 (peptide sequence: TAMVELINK, peptide start residue: 58) | -0.364
UniProt Q99KX1 (peptide sequence: QQRPLEFR, peptide start residue: 204) | 0.189
UniProt Q921I0 (peptide sequence: MNVGVAHSEVNPNTR, peptide start residue: 1) | 0.00673
UniProt Q921R8 (peptide sequence: ELGPLPSHDAGRLPK, peptide start residue: 19) | 0.1
UniProt Q921E2 (peptide sequence: EVPLKDAK, peptide start residue: 127) | -0.426

9 entries from above, as a markdown table:

| Target | log2 fold change |
| --- | --- |
| UniProt Q99KF1 (peptide sequence: DKLSELQLR, peptide start residue: 159) | -0.28 |
| UniProt Q922Q9 (peptide sequence: TQFSDKPVQDR, peptide start residue: 38) | -0.14 |
| UniProt Q99LE3 (peptide sequence: RVNNLISDQDFFALR, peptide start residue: 91) | 0.223 |
| UniProt Q923B1 (peptide sequence: RRNQAIYAAVDDGDASAE, peptide start residue: 533) | -0.496 |
| UniProt Q99KB8 (peptide sequence: VYCGHEYTVNNLK, peptide start residue: 218) | -0.213 |
| UniProt Q99KX1 (peptide sequence: QQRPLEFR, peptide start residue: 204) | 0.189 |
| UniProt Q921I0 (peptide sequence: MNVGVAHSEVNPNTR, peptide start residue: 1) | 0.00673 |
| UniProt Q921R8 (peptide sequence: ELGPLPSHDAGRLPK, peptide start residue: 19) | 0.1 |
| UniProt Q921E2 (peptide sequence: EVPLKDAK, peptide start residue: 127) | -0.426 |
